PubChem BioAssay AID1508597 | Cure First | 2020
This is a random part of the about 2,100 reagents, under one of the conditions tested. 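Calls flag viability under 80% in either arm, not effects specific to rucaparib; the reference for percent is not stated.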 Entries without a mark were called inactive. A reagent listed more than once was tested more than once; the source does not tell the runs apart. Not given: the 100% reference.

Aim: 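Survival screen with siRNA in ovarian cancer cells derived from patients, with or without rucaparib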 (primary screen)
Cell system: human ovarian carcinoma lines grown from tumours: OCI-P5x (papillary serous) and OCI-C5x (clear cell)
Reagent: siRNA pool against human genes, 1.25 pmol siRNA per well
Time to read-out: 72 h or 96 h, depending on the cell culture
Challenge: rucaparib 20 µM (about IC30) or vehicle, present until read-out
Rucaparib or vehicle: Vehicle
Cell line: OCI-C5x (clear cell)
Measurement: 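ATP luminescence measured at 72 or 96 h according to the culture, then normalised and expressed as percent viability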
Direction: viability, normalised: higher = more viable cells remaining
Rule for the call: 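a well counts as a hit if its normalised viability is under 80 percent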
Meaning of the calls: active = viability under 80%; inactive = viability 80% or more

| gene symbol | technical replicate | viability, normalised (%) |
| --- | --- | --- |
| EPHA4 | 1 | 58.5 (active) |
| EPHA4 | 2 | 67.2 (active) |
| EPHA4 | 3 | 74.8 (active) |
| IGHMBP2 | 1 | 43.1 (active) |
| IGHMBP2 | 1 | 58.4 (active) |
| IGHMBP2 | 2 | 46.4 (active) |
| IGHMBP2 | 2 | 40.8 (active) |
| IGHMBP2 | 3 | 56.4 (active) |
| IGHMBP2 | 3 | 58.6 (active) |
| RIOX2 | 1 | 48.2 (active) |
| RIOX2 | 2 | 47.6 (active) |
| RIOX2 | 3 | 51.2 (active) |
| HLTF | 1 | 37.6 (active) |
| HLTF | 2 | 34 (active) |
| HLTF | 3 | 61.6 (active) |
| DDA1 | 1 | 65.5 (active) |
| DDA1 | 2 | 56.5 (active) |
| DDA1 | 3 | 44.1 (active) |
| WNK1 | 1 | 60.7 (active) |
| WNK1 | 1 | 60.2 (active) |
| WNK1 | 2 | 55.6 (active) |
| WNK1 | 2 | 37.2 (active) |
| WNK1 | 3 | 36.1 (active) |
| WNK1 | 3 | 65 (active) |
| RBBP8 | 1 | 56.9 (active) |
| RBBP8 | 1 | 64.1 (active) |
| RBBP8 | 2 | 47 (active) |
| RBBP8 | 2 | 42.4 (active) |
| RBBP8 | 3 | 45 (active) |
| RBBP8 | 3 | 62.1 (active) |
| TFAM | 1 | 46.8 (active) |
| TFAM | 2 | 51 (active) |
| TFAM | 3 | 63.1 (active) |
| BUB1B | 1 | 65.6 (active) |
| BUB1B | 1 | 61.7 (active) |
| BUB1B | 1 | 29.4 (active) |
| BUB1B | 2 | 53.6 (active) |
| BUB1B | 2 | 66.6 (active) |
| BUB1B | 2 | 24.4 (active) |
| BUB1B | 3 | 65.2 (active) |
| BUB1B | 3 | 48.8 (active) |
| BUB1B | 3 | 47.4 (active) |
| RBBP7 | 1 | 50.3 (active) |
| RBBP7 | 2 | 60.3 (active) |
| RBBP7 | 3 | 48.2 (active) |
| KDM2B | 1 | 51.2 (active) |
| KDM2B | 2 | 64.7 (active) |
| KDM2B | 3 | 53.7 (active) |
| PTEN | 1 | 66.8 (active) |
| PTEN | 2 | 75.3 (active) |
| PTEN | 3 | 56.7 (active) |
| SHPRH | 1 | 31.4 (active) |
| SHPRH | 2 | 28.3 (active) |
| SHPRH | 3 | 36.2 (active) |
| PMS2P3 | 1 | 41.6 (active) |
| PMS2P3 | 2 | 43.9 (active) |
| PMS2P3 | 3 | 46.9 (active) |

Quoted from the listing (9 entries):
| gene symbol | technical replicate | viability, normalised (%) |
| --- | --- | --- |
| EPHA4 | 1 | 58.5 (active) |
| EPHA4 | 2 | 67.2 (active) |
| EPHA4 | 3 | 74.8 (active) |
| IGHMBP2 | 1 | 43.1 (active) |
| IGHMBP2 | 1 | 58.4 (active) |
| IGHMBP2 | 2 | 46.4 (active) |
| IGHMBP2 | 2 | 40.8 (active) |
| IGHMBP2 | 3 | 56.4 (active) |
| IGHMBP2 | 3 | 58.6 (active) |
